Data published in the supplement of paper PMC8728848.
This is one part of the list.

Legend:
Experiment in all cases: glycan array binding signal (z-score within array); higher = stronger binding
Conditions in all cases: glycan notation: IUPAC condensed, linker removed
Gal3S(b1-4)Glc = target: Gal3S(b1-4)Glc
Summary of the method: (§1)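 Glycan array binding is given as a within-array Z-score, which can be read as non-binding when negative. The arrays, 3228 of them, came from the Consortium for Functional Glycomics database and were retained only where the protein sequence was available. Z-scores were averaged across arrays of the same protein sequence at different concentrations or buffers and across linkers.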

Gal3S(b1-4)Glc6S = target: Gal3S(b1-4)Glc6S
Summary of the method: as §1

Gal3S(b1-4)GlcNAc = target: Gal3S(b1-4)GlcNAc
Summary of the method: as §1

[1] = target: Gal3S(b1-4)[Fuc(a1-3)]Glc6S
Summary of the method: as §1

[2] = target: Gal3S(b1-4)[Fuc(a1-3)]GlcNAc
Summary of the method: as §1

[3] = target: Gal3S(b1-4)[Fuc(a1-3)]GlcNAc6S
Summary of the method: as §1

Gal3S4S(b1-4)GlcNAc = target: Gal3S4S(b1-4)GlcNAc
Summary of the method: as §1

Gal3S6S(b1-4)GlcNAc = target: Gal3S6S(b1-4)GlcNAc
Summary of the method: as §1

Gal3S6S(b1-4)GlcNAc6S = target: Gal3S6S(b1-4)GlcNAc6S
Summary of the method: as §1

Gal4S(b1-4)GlcNAc = target: Gal4S(b1-4)GlcNAc
Summary of the method: as §1

Gal4S6S(b1-4)GlcNAc = target: Gal4S6S(b1-4)GlcNAc
Summary of the method: as §1

Gal6P(b1-4)GlcNAc = target: Gal6P(b1-4)GlcNAc
Summary of the method: as §1

Gal6S(b1-3)GlcNAc = target: Gal6S(b1-3)GlcNAc
Summary of the method: as §1

Gal6S(b1-3)GlcNAc6S = target: Gal6S(b1-3)GlcNAc6S
Summary of the method: as §1

Gal6S(b1-4)Glc = target: Gal6S(b1-4)Glc
Summary of the method: as §1

Gal6S(b1-4)Glc6S = target: Gal6S(b1-4)Glc6S
Summary of the method: as §1

Gal6S(b1-4)GlcNAc = target: Gal6S(b1-4)GlcNAc
Summary of the method: as §1

Gal6S(b1-4)GlcNAc6S = target: Gal6S(b1-4)GlcNAc6S
Summary of the method: as §1

GalNAc(a1-3)Gal = target: GalNAc(a1-3)Gal
Summary of the method: as §1

GalNAc(a1-3)GalNAc = target: GalNAc(a1-3)GalNAc
Summary of the method: as §1

[4] = target: GalNAc(a1-3)GalNAc(b1-3)Gal(a1-4)Gal(b1-4)Glc
Summary of the method: as §1

[5] = target: GalNAc(a1-3)GalNAc(b1-3)Gal(a1-4)Gal(b1-4)GlcNAc
Summary of the method: as §1

GalNAc(b1-3)Gal = target: GalNAc(b1-3)Gal
Summary of the method: as §1

[6] = target: GalNAc(b1-3)Gal(a1-4)Gal(b1-4)GlcNAc
Summary of the method: as §1

[7] = target: GalNAc(b1-3)Gal(a1-4)Gal(b1-4)GlcNAc(b1-3)Gal(b1-4)Glc
Summary of the method: as §1

[8] = target: GalNAc(b1-3)Gal(a1-6)Gal(b1-4)Glc
Summary of the method: as §1

GalNAc(b1-3)GalNAc = target: GalNAc(b1-3)GalNAc
Summary of the method: as §1

GalNAc(b1-3)GlcNAc = target: GalNAc(b1-3)GlcNAc
Summary of the method: as §1

GalNAc(b1-4)Gal(b1-4)Glc = target: GalNAc(b1-4)Gal(b1-4)Glc
Summary of the method: as §1

GalNAc(b1-4)GlcNAc = target: GalNAc(b1-4)GlcNAc
Summary of the method: as §1

[9] = target: GalNAc(b1-4)GlcNAc(b1-2)Man
Summary of the method: as §1

[10] = target: GalNAc(b1-4)GlcNAc(b1-2)Man(a1-3)[GalNAc(b1-4)GlcNAc(b1-2)Man(a1-6)]Man(b1-4)GlcNAc(b1-4)GlcNAc
Summary of the method: as §1

[11] = target: GalNAc(b1-4)GlcNAc(b1-3)GalNAc(b1-4)GlcNAc
Summary of the method: as §1

GalNAc(b1-4)GlcNAc6S = target: GalNAc(b1-4)GlcNAc6S
Summary of the method: as §1

GalNAc(b1-6)GalNAc = target: GalNAc(b1-6)GalNAc
Summary of the method: as §1

GalNAc3S(b1-4)GlcNAc = target: GalNAc3S(b1-4)GlcNAc
Summary of the method: as §1

GalNAc3S(b1-4)GlcNAc3S = target: GalNAc3S(b1-4)GlcNAc3S
Summary of the method: as §1

[12] = target: GalNAc3S(b1-4)[Fuc(a1-3)]GlcNAc
Summary of the method: as §1

GalNAc4S6S(b1-4)GlcNAc = target: GalNAc4S6S(b1-4)GlcNAc
Summary of the method: as §1

GalNAc6S(b1-4)GlcNAc = target: GalNAc6S(b1-4)GlcNAc
Summary of the method: as §1

Glc(a1-4)Glc = target: Glc(a1-4)Glc
Summary of the method: as §1

[13] = target: Glc(a1-4)Glc(a1-4)Glc(a1-4)Glc
Summary of the method: as §1

Glc(a1-6)Glc(a1-6)Glc = target: Glc(a1-6)Glc(a1-6)Glc
Summary of the method: as §1

[14] = target: Glc(a1-6)Glc(a1-6)Glc(a1-6)Glc
Summary of the method: as §1

Glc(b1-4)Glc = target: Glc(b1-4)Glc
Summary of the method: as §1

B1: EULS2 M1 (Oryza sativa) (protein)
chain: MVYCRANPNYAMTARNGAVVLAPANPKDEYQHWIKDMRWSTSIKDEEGYPAFALVNKATGQAIKHSLGQSHPVRLVPYNPEVMDESVLWTESRDVGNGFRCIRMVNNIYLNFDAFHGDKYHGGVRDGTDIVLWKLCEGDNQRWKIQPYYILEQKLISEEDLNSAVDHHHHHH
- glycan array binding signal (z-score) (Gal3S(b1-4)Glc): 2.18
- glycan array binding signal (z-score) (Gal3S(b1-4)Glc6S): 2.56
- glycan array binding signal (z-score) (Gal3S(b1-4)GlcNAc): 0.284
- glycan array binding signal (z-score) [1]: -0.12
- glycan array binding signal (z-score) [2]: -0.159
- glycan array binding signal (z-score) [3]: 1.12
- glycan array binding signal (z-score) (Gal3S4S(b1-4)GlcNAc): 0.432
- glycan array binding signal (z-score) (Gal3S6S(b1-4)GlcNAc): -2.07
- glycan array binding signal (z-score) (Gal3S6S(b1-4)GlcNAc6S): 0.355
- glycan array binding signal (z-score) (Gal4S(b1-4)GlcNAc): -0.281
- glycan array binding signal (z-score) (Gal4S6S(b1-4)GlcNAc): 0.177
- glycan array binding signal (z-score) (Gal6P(b1-4)GlcNAc): -0.322
- glycan array binding signal (z-score) (Gal6S(b1-3)GlcNAc): -0.276
- glycan array binding signal (z-score) (Gal6S(b1-3)GlcNAc6S): 10.9
- glycan array binding signal (z-score) (Gal6S(b1-4)Glc): -0.316
- glycan array binding signal (z-score) (Gal6S(b1-4)Glc6S): 0.372
- glycan array binding signal (z-score) (Gal6S(b1-4)GlcNAc): -0.203
- glycan array binding signal (z-score) (Gal6S(b1-4)GlcNAc6S): -0.128
- glycan array binding signal (z-score) (GalNAc(a1-3)Gal): 0.063
- glycan array binding signal (z-score) (GalNAc(a1-3)GalNAc): -0.211
- glycan array binding signal (z-score) [4]: -0.43
- glycan array binding signal (z-score) [5]: 0.139
- glycan array binding signal (z-score) (GalNAc(b1-3)Gal): -0.728
- glycan array binding signal (z-score) [6]: -0.544
- glycan array binding signal (z-score) [7]: 0.014
- glycan array binding signal (z-score) [8]: 2.84
- glycan array binding signal (z-score) (GalNAc(b1-3)GalNAc): -0.123
- glycan array binding signal (z-score) (GalNAc(b1-3)GlcNAc): -0.213
- glycan array binding signal (z-score) (GalNAc(b1-4)Gal(b1-4)Glc): 0.195
- glycan array binding signal (z-score) (GalNAc(b1-4)GlcNAc): -0.209
- glycan array binding signal (z-score) [9]: -2.38
- glycan array binding signal (z-score) [10]: -0.583
- glycan array binding signal (z-score) [11]: -0.842
- glycan array binding signal (z-score) (GalNAc(b1-4)GlcNAc6S): 0.476
- glycan array binding signal (z-score) (GalNAc(b1-6)GalNAc): -1.09
- glycan array binding signal (z-score) (GalNAc3S(b1-4)GlcNAc): -0.084
- glycan array binding signal (z-score) (GalNAc3S(b1-4)GlcNAc3S): 2.16
- glycan array binding signal (z-score) [12]: -0.328
- glycan array binding signal (z-score) (GalNAc4S6S(b1-4)GlcNAc): -0.231
- glycan array binding signal (z-score) (GalNAc6S(b1-4)GlcNAc): -0.308
- glycan array binding signal (z-score) (Glc(a1-4)Glc): -0.084
- glycan array binding signal (z-score) [13]: -0.056
- glycan array binding signal (z-score) (Glc(a1-6)Glc(a1-6)Glc): -0.205
- glycan array binding signal (z-score) [14]: -0.149
- glycan array binding signal (z-score) (Glc(b1-4)Glc): 2.81
